Measurements: PubChem BioAssay AID504444 (National Center for Advancing Translational Sciences (NCATS), 2011)
Among all 360,000 compounds or so, about 7,500 (2.1%) were called active. Inconclusive results, whose numbers are uncertain, are shown with a selection of clear calls. Calls follow the shape of the dose curve; as a rule, active = well fitted inhibition curve with a large enough effect; inconclusive = small, poorly fitted or top-dose-only effect, or effect the other way; inactive = flat fitted curve, though single readings scatter. Potencies beside an inconclusive call are fits to weak or partial responses and may not hold up.

Assay: Nrf2 qHTS screen for inhibitors; also: nearly all actives have a fitted effect of over 60% in size
Conditions: A549 ARE-Fluc reporter, luciferase luminescence, 18-24 h; series mostly up to 46 µM
Outline: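 Reporter: ARE-Fluc in A549. Exposure: 18-24 h, 37 °C, 5% CO2, 5% FBS OPTI-MEM. Readouts: fluorescent cytotoxicity (CellTiter-Fluor), then luminescent Nrf2 signal after BugLite.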
Potency is read from the fitted curve at half-maximal effect.

SMILES	Potency
CN(C)CCNC(C(=O)Nc1cc(Cl)cc(Cl)c1)c1ccccc1 (configuration not stated)	inactive
O=C(Nc1nc2n(n1)C(c1ccc(F)cc1)C=C(c1ccc(Cl)cc1)N2)c1ccc([N+](=O)[O-])cc1 (configuration not stated)	inconclusive: 16.4 µM [activator, partial curve]
Cc1cccc(C2=Nc3ccccc3N=C(c3cc(Cl)ccc3O)C2)c1	inconclusive: 0.231 µM [falling, full curve, poor fit]
COc1ccc(S(=O)(=O)Nc2ccccc2C(=O)N2CCOCC2)cc1C	inconclusive: 1.84 µM [activator, partial curve, poor fit]
Cc1ccc(C2C3=C(CCCC3=O)Nc3nc(SCC(=O)NCc4ccco4)[nH]c(=O)c32)cc1 (configuration not stated)	inactive
N#Cc1ccccc1S(=O)(=O)N1CCN(C(=O)CCc2ccccc2)CC1	inconclusive: 32.6 µM [falling, single point]
O=c1cnn(Cc2c(Cl)cccc2Cl)c2ccccc12	inconclusive: 0.0046 µM [activator, full curve, poor fit]
O=C(CCc1nc2ccccc2c(=O)[nH]1)NC1CCN(Cc2ccccc2)CC1	inconclusive: 2.06 µM [falling, partial curve, poor fit]
Cc1cccc(C(=O)N/N=C/c2ccoc2)c1	inconclusive: 7.31 µM [activator, partial curve, poor fit]
O=C(NC1CCCCC1)C(c1ccc(Cl)cc1)N1CCC2(CC1)OCCO2 (configuration not stated)	inconclusive: 29.1 µM [falling, partial curve, poor fit]
Cc1cn2c(=O)c(S(=O)(=O)Nc3ccc(OC(F)(F)F)cc3)c(C)nc2s1	inconclusive: 29.1 µM [falling, single point]
O=C(Nc1ccccc1)Nc1ccc(Cl)c(S(=O)(=O)N2CCOCC2)c1	inconclusive: 18.4 µM [falling, single point]
CC1Cc2ccccc2N1C(=O)C1CCCCN1S(=O)(=O)c1ccccc1 (configuration not stated)	inconclusive: 25.9 µM [falling, single point]
Fc1ccc(-c2nc3ccncc3[nH]2)cc1	inconclusive: 25.9 µM [activator, single point]
CCOc1ccsc1C(=O)O	inconclusive: 29.1 µM [activator, single point]
COc1ccc(C(CC(=O)Nc2cc(Cl)c(OC)cc2OC)N2Cc3ccccc3C2=O)cc1 (configuration not stated)	inactive
COc1ccc(-c2c(C)nn3c(C(F)(F)F)cc(-c4ccc(C)cc4)nc23)cc1	inactive
O=C(O)Cc1sc(Nc2cccc3ccccc23)nc1-c1ccc(Cl)cc1	inconclusive: 29.1 µM [falling, single point]
Cn1c(COc2ccccc2Br)nc2ccccc21	inconclusive: 8.2 µM [activator, partial curve]
CNC[C@@H](Cc1ccccc1)NC[C@@H](CC1CCCCC1)NCCCc1ccccc1	inactive
O=C1NC(c2ccccc2)=C(c2nc3ccccc3s2)C(c2ccccc2)N1 (configuration not stated)	inconclusive: 18.4 µM [falling, single point]
COc1ccc(-n2cc(-c3ccccc3)c3c(=O)[nH]cnc32)cc1	inconclusive: 32.6 µM [falling, single point]
COCCN(C(=O)CSc1nnc(C)n1Cc1ccccc1)c1c(N)n(Cc2ccccc2)c(=O)[nH]c1=O	inconclusive: 0.0651 µM [falling, partial curve, poor fit]

SMILES	Potency
O=C(Cc1ccccc1[N+](=O)[O-])NCc1ccc(Cl)cc1	inconclusive: 10.3 µM [activator, partial curve]
Cc1sc2ncnc(N3CCC(C(=O)NNC(=O)COc4ccccc4Cl)CC3)c2c1C	inconclusive: 16.4 µM [falling, single point]
COc1ccccc1NC(=O)CSc1nncs1	inconclusive: 6.51 µM [falling, single point]
CC(=O)c1cccc(NS(=O)(=O)c2ccc3[nH]c4c(c3c2)CCCCC4)c1	active: 16.4 µM
O=C1N=C(N2CCOCC2)SC1=C1CCCCC1	inconclusive: 29.1 µM [activator, single point]
CCn1nc(C(=O)Nc2ccc3nc(C)sc3c2)c2ccccc2c1=O	inconclusive: 20.6 µM [falling, partial curve, poor fit]
COC(=O)c1ccc(CCc2cc(O)ccc2O)cc1	inconclusive: 10.3 µM [activator, partial curve, poor fit]
CCC(C)(C)n1nnnc1C(c1cc2cc3c(cc2[nH]c1=O)OCO3)N1CCN(C)CC1 (configuration not stated)	inactive
O=C1CC(c2ccccc2)CC(O)=C1C=NCc1ccccc1 (configuration not stated)	inconclusive: 6.51 µM [falling, single point]
CC(C)Oc1cccc(NC(=O)c2cnccc2C(F)(F)F)c1	inconclusive: 0.0184 µM [falling, full curve, poor fit]
O=C(Nc1cccc(-c2ccc(N3CCOCC3)nn2)c1)c1ccc(Cl)cc1	inconclusive: 6.51 µM [activator, single point]
CCOC(=O)Cc1csc(NC(=O)CCCCCN2C(=O)c3cccc4cccc(c34)C2=O)n1	inconclusive: 23.1 µM [falling, partial curve, poor fit]
Cc1cccc(-c2noc(C3CCCCC3)n2)c1	inconclusive: 11.6 µM [activator, partial curve]
COc1ccc(CNC(=O)CC2C[C@H](C(=O)N3CCOCC3)[C@@]3(CCC4CCCC4)c4[nH]c5ccccc5c4CCN3C2=O)cc1OC (some centres not stated)	inconclusive: 32.6 µM [falling, single point]
Cc1nn(-c2ccccc2)c(C)c1C(=O)Nc1nnc(-c2ccco2)o1	inconclusive: 32.6 µM [falling, single point]
Cc1cc(C)n(-c2nc3ccccc3nc2Nc2ccc3[nH]c(=O)[nH]c3c2)n1	inconclusive: 32.6 µM [falling, partial curve, poor fit]
CCOC(=O)c1[nH]c(C)c(C(=O)N2CCOCC2)c1C	inactive
COc1cc2c(cc1OC)CN(CC(=O)Nc1ccc(Cl)cc1Cl)CC2	inconclusive: 16.4 µM [falling, single point]
Oc1ccc2ccccc2c1C=Nc1ccccc1Br	inactive
C#CCOCCOCCOCCNc1nc(N2CCOCC2)nc(N2CCN(C(=O)CCCCCCCCCCNC(=O)[C@@H](CCSC)n3cc(CCO)nn3)CC2)n1	inconclusive: 5.17 µM [falling, full curve, poor fit]
CCN(CC)c1ccc(C(=O)N/N=C/c2ccccc2OC(F)F)cc1	inconclusive: 29.1 µM [falling, partial curve, poor fit]
CC(C)N1CCc2c(sc(NC(=O)c3ccco3)c2C(N)=O)C1	inactive
COC(=O)c1cc(NC(=O)c2cc(C(C)(C)C)nn2Cc2ccc(F)cc2)ccc1N1CCOCC1	active: 13 µM

SMILES	Potency
CCCCS/C(N)=N/N=C/c1cc(C)ccc1O	inconclusive: 6.51 µM [activator, partial curve, poor fit]
CN(c1ccccc1)S(=O)(=O)c1cc(C(=O)c2nccn2C)ccc1Cl	inconclusive: 25.9 µM [falling, partial curve, poor fit]
COc1ccc(CCNC(=O)COc2ccc(S(=O)(=O)N3CCOCC3)cc2C)cc1	inconclusive: 23.1 µM [falling, single point]
COC(=O)c1c(C#N)c(N)nc2c1CCCC2	inactive
CN(C)CCCNC(=O)/C(=C\c1ccc(-c2ccc(Br)cc2)o1)NC(=O)c1ccccc1	inactive
Cc1cccc2c1Sc1ccccc1CC2=O	inconclusive: 14.6 µM [activator, partial curve, poor fit]
CCN(Cc1ccncc1)C(=O)c1cccs1	inconclusive: 6.51 µM [activator, partial curve, poor fit]
O=C(O)C1CCC(Cn2c(SCc3cc(=O)n4cc(Cl)ccc4n3)nc3ccsc3c2=O)CC1 (configuration not stated)	inconclusive: 7.31 µM [falling, partial curve, poor fit]
Cn1ncc2cc(NC(=S)NC(=O)c3ccccc3)ccc21	inconclusive: 2.91 µM [activator, single point]
COCCn1c(C)cc(C(=O)CSc2ccc3ccccc3n2)c1C	inconclusive: 2.06 µM [activator, full curve]
Cc1c(C=O)c2cc(OCc3ccccc3)ccc2n1C	inactive
Cc1ccc(F)cc1NC(=O)CSc1nc(-c2cccs2)cc(C(F)(F)F)n1	inactive
Cc1c(P(=S)(c2ccccc2)c2ccccc2)[n+]2ccccc2n1Cc1ccccc1	inactive
CCCCOC(=O)NC(NCC(O)c1ccccc1)(C(F)(F)F)C(F)(F)F (configuration not stated)	inconclusive: 8.2 µM [falling, partial curve, poor fit]
Cc1ccc(NC(=O)CN2C(=O)CC(c3ccco3)Sc3ccccc32)cc1Cl (configuration not stated)	inactive
CC(=O)c1cc(F)ccc1OCC(=O)N1CCCc2ccccc21	inconclusive: 29.1 µM [activator, single point]
COc1cccc(Nc2nc(-c3sc(NC(=O)c4ccccc4)nc3C)cs2)c1	inactive
COC(=O)c1c(-c2ccc(F)cc2)csc1NC(=O)C1CCCO1 (configuration not stated)	active: 18.4 µM
Cc1nn(-c2ccccc2)c2nc(-c3cccs3)cc(C(=O)NN)c12	inactive
CCOC(=O)c1ccc(NC(=O)CS(=O)(=O)Cc2nc(-c3ccc(C)cc3)oc2C)cc1	inactive
O=C(C1=C[C@@H](c2ccc(Br)cc2)C[C@@H](OCc2ccc(CO)cc2)O1)N1CCN(Cc2ccc3c(c2)OCO3)CC1	inconclusive: 18.4 µM [falling, single point]

Some of the entries so far, as labelled records:
Cc1cccc(-c2noc(C3CCCCC3)n2)c1
  Potency: inconclusive: 11.6 µM [activator, partial curve]
COc1ccc(CNC(=O)CC2C[C@H](C(=O)N3CCOCC3)[C@@]3(CCC4CCCC4)c4[nH]c5ccccc5c4CCN3C2=O)cc1OC (some centres not stated)
  Potency: inconclusive: 32.6 µM [falling, single point]
Cc1nn(-c2ccccc2)c(C)c1C(=O)Nc1nnc(-c2ccco2)o1
  Potency: inconclusive: 32.6 µM [falling, single point]
Cc1cc(C)n(-c2nc3ccccc3nc2Nc2ccc3[nH]c(=O)[nH]c3c2)n1
  Potency: inconclusive: 32.6 µM [falling, partial curve, poor fit]
